Measurements taken from PubChem BioAssay AID248 (DTP/NCI, 2004).
The list is a part of this screen's results and no random one: it gathers tests that were run many times, whatever their T/C, doses with no T/C, and many T/C values between a quarter and a half above the control. Other doses and runs of a compound stand elsewhere. T/C gives the treated animals as a percentage of the vehicle group. Some doses have a count of surviving animals in place of a T/C: the source files T/C as zero there, which appears to mark a toxic dose or a test without result, not a measured value. Some survivor counts are full or nearly so, which does not show that the dose was tolerated: the source hardly ever lists a survival T/C far under the control, and the zero likely stands for such cases as well. Counts of survivors are from the toxicity check (mostly the fifth day) where no day follows; animals may have died later. Schedule codes are those of the source, read here as Q, the interval in days (D) or hours (H), X, the number of doses. Where survival is the endpoint, the PubChem record calls one and a half times the control and up active, and a quarter to a half above the control has no call in these data; cut-offs in other NCI protocols can differ. Some entries hold several experiments; the values are given in rising order. Some T/C values are followed by the survivors on the day toxicity was checked, most often the fifth; without a count, all were alive then.

System: L1210 leukemia ip in BDF1 mice, survival T/C
Assay: NCI In Vivo Anticancer Drug Screen. Data for tumor model L1210 Leukemia (intraperitoneal) in B6D2F1 (BDF1) mice
Conditions: higher T/C = longer survival
[1] = T/C endpoint: mean survival time, dose: 50.0 mg/kg/injection, schedule: Q01DX009 (ip), vehicle: water
[2] = T/C endpoint: mean survival time, dose: 100.0 mg/kg/injection, schedule: Q01DX009 (ip), vehicle: water
[3] = T/C endpoint: mean survival time, dose: 200.0 mg/kg/injection, schedule: Q01DX009 (ip), vehicle: saline
[4] = T/C endpoint: mean survival time, dose: 200.0 mg/kg/injection, schedule: Q01DX009 (ip), vehicle: water
[5] = T/C endpoint: mean survival time, dose: 200.0 mg/kg/injection, schedule: Q04DX002 (ip), vehicle: saline
[6] = T/C endpoint: mean survival time, dose: 400.0 mg/kg/injection, schedule: Q01DX009 (ip), vehicle: saline
[7] = T/C endpoint: mean survival time, dose: 400.0 mg/kg/injection, schedule: Q04DX003 (ip), vehicle: water

COc1cc2cc3c4cc(OC)c(OC)cc4cc[n+]3c(C)c2cc1OC
T/C (T/C endpoint: mean survival time, dose: 25.0 mg/kg/injection, schedule: Q01DX009 (ip), vehicle: water): 140 % of control | T/C (T/C endpoint: mean survival time, dose: 25.0 mg/kg/injection, schedule: Q04DX003 (ip), vehicle: water): 132 % of control [9 of 10 alive] | T/C (T/C endpoint: mean survival time, dose: 32.0 mg/kg/injection, schedule: Q03HX016 (ip), vehicle: saline): 132 % of control [8 of 10 alive] | T/C (T/C endpoint: mean survival time, dose: 50.0 mg/kg/injection, schedule: Q01DX009 (ip), vehicle: saline): 128 and 131 % of control | T/C [1]: 125 % of control | T/C (T/C endpoint: mean survival time, dose: 50.0 mg/kg/injection, schedule: Q04DX003 (ip), vehicle: water): 129 % of control | T/C (T/C endpoint: mean survival time, dose: 64.0 mg/kg/injection, schedule: Q03HX016 (ip), vehicle: saline): 127 % of control | T/C (T/C endpoint: mean survival time, dose: 64.0 mg/kg/injection, schedule: Q03HX024 (ip), vehicle: saline): 133 % of control [9 of 10 alive] | T/C (T/C endpoint: mean survival time, dose: 100.0 mg/kg/injection, schedule: Q01DX001 (ip), vehicle: water): 142 % of control | T/C [2]: 128 % of control [9 of 10 alive] | T/C (T/C endpoint: mean survival time, dose: 100.0 mg/kg/injection, schedule: Q04DX002 (ip), vehicle: saline): 126 % of control | T/C (T/C endpoint: mean survival time, dose: 100.0 mg/kg/injection, schedule: Q04DX003 (ip), vehicle: water): 134 % of control | survivor count (T/C endpoint: mean survival time, dose: 128.0 mg/kg/injection, schedule: Q03HX016 (ip), vehicle: saline): 5 of 10 | T/C (T/C endpoint: mean survival time, dose: 128.0 mg/kg/injection, schedule: Q03HX024 (ip), vehicle: saline): 129 % of control [9 of 10 alive] | T/C (T/C endpoint: mean survival time, dose: 200.0 mg/kg/injection, schedule: Q01DX001 (ip), vehicle: water): 127 % of control | T/C [3]: 138 % of control [5 of 6 alive] | T/C [4]: 132 % of control | T/C [5]: 126 % of control | T/C (T/C endpoint: mean survival time, dose: 200.0 mg/kg/injection, schedule: Q04DX003 (ip), vehicle: saline): 130 % of control | T/C (T/C endpoint: mean survival time, dose: 200.0 mg/kg/injection, schedule: Q04DX003 (ip), vehicle: water): 130 % of control | T/C (T/C endpoint: mean survival time, dose: 256.0 mg/kg/injection, schedule: Q01DX009 (ip), vehicle: saline): 128 % of control | survivor count (T/C endpoint: mean survival time, dose: 256.0 mg/kg/injection, schedule: Q03HX008 (ip), vehicle: saline): 3 of 10 | survivor count (T/C endpoint: mean survival time, dose: 256.0 mg/kg/injection, schedule: Q03HX016 (ip), vehicle: saline): 2 of 10 | survivor count (T/C endpoint: mean survival time, dose: 256.0 mg/kg/injection, schedule: Q03HX024 (ip), vehicle: saline): 7 of 10 | T/C (T/C endpoint: mean survival time, dose: 256.0 mg/kg/injection, schedule: Q04DX003 (ip), vehicle: saline): 128 % of control | T/C (T/C endpoint: mean survival time, dose: 400.0 mg/kg/injection, schedule: Q01DX001 (ip), vehicle: water): 137 % of control | T/C [6]: 131 % of control | T/C [7]: 131 % of control | T/C (T/C endpoint: mean survival time, dose: 512.0 mg/kg/injection, schedule: Q01DX009 (ip), vehicle: saline): 134 % of control [7 of 10 alive] | T/C (T/C endpoint: mean survival time, dose: 512.0 mg/kg/injection, schedule: Q04DX003 (ip), vehicle: saline): 134 % of control | T/C (T/C endpoint: mean survival time, dose: 1024.0 mg/kg/injection, schedule: Q01DX001 (ip), vehicle: saline): 140 % of control | survivor count (T/C endpoint: mean survival time, dose: 1024.0 mg/kg/injection, schedule: Q01DX009 (ip), vehicle: saline): 6 of 10 | T/C (T/C endpoint: mean survival time, dose: 1024.0 mg/kg/injection, schedule: Q08DX002 (ip), vehicle: saline): 126 % of control [9 of 10 alive] | T/C (T/C endpoint: median survival time, dose: 8.0 mg/kg/injection, schedule: Q03HX008 (ip), vehicle: saline): 127 % of control | T/C (T/C endpoint: median survival time, dose: 8.0 mg/kg/injection, schedule: Q03HX024 (ip), vehicle: saline): 133 % of control | T/C (T/C endpoint: median survival time, dose: 32.0 mg/kg/injection, schedule: Q03HX008 (ip), vehicle: saline): 133 % of control | T/C (T/C endpoint: median survival time, dose: 32.0 mg/kg/injection, schedule: Q03HX024 (ip), vehicle: saline): 133 % of control | T/C (T/C endpoint: median survival time, dose: 64.0 mg/kg/injection, schedule: Q03HX024 (ip), vehicle: saline): 133 % of control | T/C (T/C endpoint: median survival time, dose: 100.0 mg/kg/injection, schedule: Q01DX009 (ip), vehicle: saline, evaluated on day 7): 100 and 103 % of control | T/C (T/C endpoint: median survival time, dose: 100.0 mg/kg/injection, schedule: Q01DX009 (ip), vehicle: saline, evaluated on day 43): 100 % of control | T/C (T/C endpoint: median survival time, dose: 100.0 mg/kg/injection, schedule: Q01DX009 (ip), vehicle: saline, evaluated on day 44): 100 % of control [7 of 8 alive] | T/C (T/C endpoint: median survival time, dose: 128.0 mg/kg/injection, schedule: Q03HX008 (ip), vehicle: saline): 133 % of control [7 of 8 alive] | T/C (T/C endpoint: median survival time, dose: 128.0 mg/kg/injection, schedule: Q03HX024 (ip), vehicle: saline): 138 % of control | T/C (T/C endpoint: median survival time, dose: 200.0 mg/kg/injection, schedule: Q01DX009 (ip), vehicle: saline, evaluated on day 7): 102 and 103 % of control | T/C (T/C endpoint: median survival time, dose: 200.0 mg/kg/injection, schedule: Q01DX009 (ip), vehicle: saline, evaluated on day 43): 100 % of control | T/C (T/C endpoint: median survival time, dose: 200.0 mg/kg/injection, schedule: Q01DX009 (ip), vehicle: saline, evaluated on day 44): 100 % of control | T/C (T/C endpoint: median survival time, dose: 250.0 mg/kg/injection, schedule: Q01DX009 (ip), vehicle: saline, evaluated on day 5): 129 % of control | T/C (T/C endpoint: median survival time, dose: 250.0 mg/kg/injection, schedule: Q01DX009 (ip), vehicle: saline, evaluated on day 30): 125 % of control | T/C (T/C endpoint: median survival time, dose: 256.0 mg/kg/injection, schedule: Q01DX001 (ip), vehicle: saline): 127 % of control | T/C (T/C endpoint: median survival time, dose: 256.0 mg/kg/injection, schedule: Q01DX009 (ip), vehicle: saline): 133 % of control | T/C (T/C endpoint: median survival time, dose: 256.0 mg/kg/injection, schedule: Q04DX003 (ip), vehicle: saline): 127 % of control | T/C (T/C endpoint: median survival time, dose: 400.0 mg/kg/injection, schedule: Q01DX009 (ip), vehicle: saline, evaluated on day 7): 101 and 103 % of control | T/C (T/C endpoint: median survival time, dose: 400.0 mg/kg/injection, schedule: Q01DX009 (ip), vehicle: saline, evaluated on day 43): 100 % of control | T/C (T/C endpoint: median survival time, dose: 400.0 mg/kg/injection, schedule: Q01DX009 (ip), vehicle: saline, evaluated on day 44): 100 % of control | T/C (T/C endpoint: median survival time, dose: 500.0 mg/kg/injection, schedule: Q01DX009 (ip), vehicle: saline, evaluated on day 5): 127 % of control | T/C (T/C endpoint: median survival time, dose: 500.0 mg/kg/injection, schedule: Q01DX009 (ip), vehicle: saline, evaluated on day 30): 125 % of control | T/C (T/C endpoint: median survival time, dose: 512.0 mg/kg/injection, schedule: Q01DX009 (ip), vehicle: saline): 144 % of control | T/C (T/C endpoint: median survival time, dose: 512.0 mg/kg/injection, schedule: Q08DX002 (ip), vehicle: saline): 127 % of control | T/C (T/C endpoint: median survival time, dose: 800.0 mg/kg/injection, schedule: Q01DX009 (ip), vehicle: saline, evaluated on day 7): 94 and 101 % of control | T/C (T/C endpoint: median survival time, dose: 800.0 mg/kg/injection, schedule: Q01DX009 (ip), vehicle: saline, evaluated on day 43): 100 % of control | T/C (T/C endpoint: median survival time, dose: 800.0 mg/kg/injection, schedule: Q01DX009 (ip), vehicle: saline, evaluated on day 44): 90 % of control | T/C (T/C endpoint: median survival time, dose: 1024.0 mg/kg/injection, schedule: Q01DX001 (ip), vehicle: saline): 133 % of control | T/C (T/C endpoint: median survival time, dose: 1024.0 mg/kg/injection, schedule: Q04DX003 (ip), vehicle: saline): 127 % of control

CC1=CCC(C(C)C)C=C1 (configuration not stated)
survivor count [3]: 1 of 6 | survivor count [6]: 0 of 6

CCCC[N+](CCCC)=c1cc(-c2ccc(Cl)cc2)ss1
survivor count [1]: 4 of 6 | survivor count [2]: 0 of 6 | survivor count [4]: 0 of 6 | survivor count (T/C endpoint: mean survival time, dose: 300.0 mg/kg/injection, schedule: Q01DX009 (ip), vehicle: water): 0 of 6 | survivor count [7]: 0 of 6

CCCCCCCCCCC(=O)[O][Hg][c]1ccccc1
survivor count (T/C endpoint: mean survival time, dose: 37.5 mg/kg/injection, schedule: Q01DX001 (ip), vehicle: saline): 0 of 6 | survivor count (T/C endpoint: mean survival time, dose: 75.0 mg/kg/injection, schedule: Q01DX001 (ip), vehicle: other): 1 of 6 | survivor count (T/C endpoint: mean survival time, dose: 150.0 mg/kg/injection, schedule: Q01DX001 (ip), vehicle: other): 0 of 6 | survivor count (T/C endpoint: mean survival time, dose: 300.0 mg/kg/injection, schedule: Q01DX001 (ip), vehicle: other): 1 of 6

O=c1[nH]c(=O)ss1
survivor count (T/C endpoint: mean survival time, dose: 400.0 mg/kg/injection, schedule: Q04DX003 (ip), vehicle: saline): 0 of 4

CCOC(=O)NOP(=O)(N1CC1)N1CC1
survivor count [5]: 2 of 3 | survivor count (T/C endpoint: mean survival time, dose: 400.0 mg/kg/injection, schedule: Q04DX002 (ip), vehicle: saline): 3 of 3
